We go through 1 sequence from patent publication US20060058237.

The data set deals with T1, p49/STRAP (UniProt Q9CZ91).
T1 sequence: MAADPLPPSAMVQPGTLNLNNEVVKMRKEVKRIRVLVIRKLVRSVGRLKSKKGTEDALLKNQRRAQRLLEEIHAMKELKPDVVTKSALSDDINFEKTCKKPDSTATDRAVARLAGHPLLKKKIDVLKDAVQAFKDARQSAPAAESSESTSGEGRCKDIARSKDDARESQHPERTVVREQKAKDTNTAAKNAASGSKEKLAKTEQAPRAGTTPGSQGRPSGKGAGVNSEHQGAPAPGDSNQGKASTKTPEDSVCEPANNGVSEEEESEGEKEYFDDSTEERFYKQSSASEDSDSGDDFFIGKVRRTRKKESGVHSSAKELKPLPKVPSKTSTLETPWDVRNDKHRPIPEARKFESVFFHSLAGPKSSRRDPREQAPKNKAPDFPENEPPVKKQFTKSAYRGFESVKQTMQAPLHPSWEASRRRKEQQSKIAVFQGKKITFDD
Kind of data set: EMSA. To be noted: with SRF present, no additional band shifted by anti-SRF or anti-HA, no ternary complex with SRF at SRE, in vitro translated protein and NIH3T3 lysate, data not shown.

The exact form of at least one protein or probe is not confirmed. No signal at the amounts used counts as a negative. Protein sequences can lack the tags named with them.

For “GGATGTCCATATTAGGACATCT (double strand) [c-fos SRE consensus oligonucleotide]”, the binding result is recorded as “no binding”.
